Laboratory results as given in the supplement of paper PMC10849652.
Some of the results follow.

Sequences of proteins named here, by UniProt entry; tags and fusion partners are left off. A change or cut given only in a name is not applied to a line headed by its entry.
UniProt Q9Y5W7: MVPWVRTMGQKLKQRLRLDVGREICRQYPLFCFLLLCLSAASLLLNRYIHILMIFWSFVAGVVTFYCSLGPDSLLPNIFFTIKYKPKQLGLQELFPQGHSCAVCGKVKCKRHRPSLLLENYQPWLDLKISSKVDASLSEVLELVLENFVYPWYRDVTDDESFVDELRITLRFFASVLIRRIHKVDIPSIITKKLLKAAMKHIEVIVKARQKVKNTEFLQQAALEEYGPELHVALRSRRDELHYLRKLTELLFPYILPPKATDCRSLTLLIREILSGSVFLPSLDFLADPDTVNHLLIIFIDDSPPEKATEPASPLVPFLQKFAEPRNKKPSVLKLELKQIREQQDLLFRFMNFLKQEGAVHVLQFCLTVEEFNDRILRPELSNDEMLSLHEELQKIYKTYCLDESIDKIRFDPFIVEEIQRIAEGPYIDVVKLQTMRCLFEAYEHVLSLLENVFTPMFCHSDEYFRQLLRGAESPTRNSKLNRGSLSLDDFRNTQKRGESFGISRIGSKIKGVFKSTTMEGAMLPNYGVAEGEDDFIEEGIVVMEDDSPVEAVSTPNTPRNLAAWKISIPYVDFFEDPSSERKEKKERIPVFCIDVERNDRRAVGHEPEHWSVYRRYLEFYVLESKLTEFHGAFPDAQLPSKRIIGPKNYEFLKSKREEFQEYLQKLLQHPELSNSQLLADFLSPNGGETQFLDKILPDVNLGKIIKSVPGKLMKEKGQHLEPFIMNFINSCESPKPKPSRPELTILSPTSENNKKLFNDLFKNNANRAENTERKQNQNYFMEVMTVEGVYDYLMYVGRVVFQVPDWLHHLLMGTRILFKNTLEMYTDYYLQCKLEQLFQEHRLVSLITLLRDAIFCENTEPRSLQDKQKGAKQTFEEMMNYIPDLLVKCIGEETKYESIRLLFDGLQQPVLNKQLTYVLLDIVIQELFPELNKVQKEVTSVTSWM
UniProt P09234, whole entry, looked up: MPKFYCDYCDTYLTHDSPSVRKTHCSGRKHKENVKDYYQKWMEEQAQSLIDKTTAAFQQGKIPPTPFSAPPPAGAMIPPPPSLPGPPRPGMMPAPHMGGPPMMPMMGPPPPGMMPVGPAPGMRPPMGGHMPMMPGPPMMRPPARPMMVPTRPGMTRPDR
UniProt O14508, whole entry, looked up: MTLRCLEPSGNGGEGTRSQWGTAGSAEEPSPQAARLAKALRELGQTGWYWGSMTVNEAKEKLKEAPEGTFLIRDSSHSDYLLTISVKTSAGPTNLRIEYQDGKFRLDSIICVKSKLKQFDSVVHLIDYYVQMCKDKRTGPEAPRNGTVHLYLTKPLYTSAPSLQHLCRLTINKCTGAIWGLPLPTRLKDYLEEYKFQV
UniProt Q96RF0: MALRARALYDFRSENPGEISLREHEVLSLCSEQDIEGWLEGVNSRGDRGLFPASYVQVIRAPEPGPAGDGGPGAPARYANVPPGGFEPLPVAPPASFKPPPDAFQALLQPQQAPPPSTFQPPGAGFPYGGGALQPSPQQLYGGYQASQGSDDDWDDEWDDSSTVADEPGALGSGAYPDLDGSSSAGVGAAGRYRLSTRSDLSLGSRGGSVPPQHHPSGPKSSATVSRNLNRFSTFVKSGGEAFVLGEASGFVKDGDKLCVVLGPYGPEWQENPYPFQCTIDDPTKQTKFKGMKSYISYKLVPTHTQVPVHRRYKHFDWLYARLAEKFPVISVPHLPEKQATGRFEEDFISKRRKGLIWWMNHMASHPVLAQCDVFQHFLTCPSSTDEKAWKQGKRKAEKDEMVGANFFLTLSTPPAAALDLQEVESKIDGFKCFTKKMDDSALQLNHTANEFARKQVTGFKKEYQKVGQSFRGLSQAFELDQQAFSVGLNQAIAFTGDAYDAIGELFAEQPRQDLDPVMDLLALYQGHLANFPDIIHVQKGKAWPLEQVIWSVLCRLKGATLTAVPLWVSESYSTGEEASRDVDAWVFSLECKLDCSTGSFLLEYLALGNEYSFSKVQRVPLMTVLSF
UniProt O00161: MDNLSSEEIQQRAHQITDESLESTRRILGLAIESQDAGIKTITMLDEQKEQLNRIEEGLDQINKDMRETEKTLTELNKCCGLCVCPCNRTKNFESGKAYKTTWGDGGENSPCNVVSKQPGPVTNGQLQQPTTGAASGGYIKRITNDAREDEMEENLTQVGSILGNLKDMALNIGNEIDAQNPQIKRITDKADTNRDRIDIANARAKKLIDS
UniProt Q8WVI0: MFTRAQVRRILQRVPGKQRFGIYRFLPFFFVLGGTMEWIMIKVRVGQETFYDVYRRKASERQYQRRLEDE
UniProt Q16533: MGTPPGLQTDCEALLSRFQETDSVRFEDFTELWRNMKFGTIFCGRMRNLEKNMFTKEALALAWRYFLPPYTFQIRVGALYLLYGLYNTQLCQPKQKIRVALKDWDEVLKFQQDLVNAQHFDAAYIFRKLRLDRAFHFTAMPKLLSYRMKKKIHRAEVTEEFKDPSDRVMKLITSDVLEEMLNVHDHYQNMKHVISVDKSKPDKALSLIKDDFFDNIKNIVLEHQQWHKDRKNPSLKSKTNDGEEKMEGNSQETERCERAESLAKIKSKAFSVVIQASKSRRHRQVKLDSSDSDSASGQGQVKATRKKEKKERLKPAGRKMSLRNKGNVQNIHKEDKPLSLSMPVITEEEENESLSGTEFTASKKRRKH
UniProt Q8TAQ2, whole entry, looked up: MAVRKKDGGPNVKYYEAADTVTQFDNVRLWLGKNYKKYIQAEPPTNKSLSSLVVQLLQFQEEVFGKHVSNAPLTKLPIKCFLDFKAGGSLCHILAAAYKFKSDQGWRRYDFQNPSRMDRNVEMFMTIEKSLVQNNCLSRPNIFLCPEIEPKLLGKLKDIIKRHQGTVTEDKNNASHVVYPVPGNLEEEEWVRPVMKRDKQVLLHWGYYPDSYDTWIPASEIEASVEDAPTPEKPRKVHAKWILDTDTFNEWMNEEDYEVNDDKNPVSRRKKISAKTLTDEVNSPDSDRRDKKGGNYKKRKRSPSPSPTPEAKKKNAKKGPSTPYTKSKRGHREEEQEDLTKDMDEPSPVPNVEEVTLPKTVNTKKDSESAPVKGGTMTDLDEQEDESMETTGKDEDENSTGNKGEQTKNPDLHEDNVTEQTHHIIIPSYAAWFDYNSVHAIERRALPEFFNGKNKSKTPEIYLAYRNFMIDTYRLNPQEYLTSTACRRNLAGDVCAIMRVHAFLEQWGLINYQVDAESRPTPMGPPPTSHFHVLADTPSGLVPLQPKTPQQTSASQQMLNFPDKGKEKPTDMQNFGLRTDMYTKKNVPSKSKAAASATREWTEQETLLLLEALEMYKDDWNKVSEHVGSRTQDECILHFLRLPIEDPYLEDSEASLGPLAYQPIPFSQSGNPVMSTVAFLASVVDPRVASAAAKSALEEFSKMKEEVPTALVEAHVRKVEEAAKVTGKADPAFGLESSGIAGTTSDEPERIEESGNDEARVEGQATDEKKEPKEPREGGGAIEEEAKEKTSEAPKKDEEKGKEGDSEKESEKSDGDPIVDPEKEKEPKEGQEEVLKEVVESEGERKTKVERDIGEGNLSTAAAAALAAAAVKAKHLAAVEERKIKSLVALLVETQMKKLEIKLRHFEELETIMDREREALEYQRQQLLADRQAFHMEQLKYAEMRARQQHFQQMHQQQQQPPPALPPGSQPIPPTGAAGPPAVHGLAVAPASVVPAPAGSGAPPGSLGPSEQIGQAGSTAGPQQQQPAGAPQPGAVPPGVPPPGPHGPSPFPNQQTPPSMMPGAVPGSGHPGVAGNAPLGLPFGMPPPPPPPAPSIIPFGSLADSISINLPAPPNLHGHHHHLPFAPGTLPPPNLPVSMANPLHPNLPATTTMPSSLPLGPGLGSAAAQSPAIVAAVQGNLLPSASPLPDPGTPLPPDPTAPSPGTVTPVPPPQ
UniProt Q5SXM2: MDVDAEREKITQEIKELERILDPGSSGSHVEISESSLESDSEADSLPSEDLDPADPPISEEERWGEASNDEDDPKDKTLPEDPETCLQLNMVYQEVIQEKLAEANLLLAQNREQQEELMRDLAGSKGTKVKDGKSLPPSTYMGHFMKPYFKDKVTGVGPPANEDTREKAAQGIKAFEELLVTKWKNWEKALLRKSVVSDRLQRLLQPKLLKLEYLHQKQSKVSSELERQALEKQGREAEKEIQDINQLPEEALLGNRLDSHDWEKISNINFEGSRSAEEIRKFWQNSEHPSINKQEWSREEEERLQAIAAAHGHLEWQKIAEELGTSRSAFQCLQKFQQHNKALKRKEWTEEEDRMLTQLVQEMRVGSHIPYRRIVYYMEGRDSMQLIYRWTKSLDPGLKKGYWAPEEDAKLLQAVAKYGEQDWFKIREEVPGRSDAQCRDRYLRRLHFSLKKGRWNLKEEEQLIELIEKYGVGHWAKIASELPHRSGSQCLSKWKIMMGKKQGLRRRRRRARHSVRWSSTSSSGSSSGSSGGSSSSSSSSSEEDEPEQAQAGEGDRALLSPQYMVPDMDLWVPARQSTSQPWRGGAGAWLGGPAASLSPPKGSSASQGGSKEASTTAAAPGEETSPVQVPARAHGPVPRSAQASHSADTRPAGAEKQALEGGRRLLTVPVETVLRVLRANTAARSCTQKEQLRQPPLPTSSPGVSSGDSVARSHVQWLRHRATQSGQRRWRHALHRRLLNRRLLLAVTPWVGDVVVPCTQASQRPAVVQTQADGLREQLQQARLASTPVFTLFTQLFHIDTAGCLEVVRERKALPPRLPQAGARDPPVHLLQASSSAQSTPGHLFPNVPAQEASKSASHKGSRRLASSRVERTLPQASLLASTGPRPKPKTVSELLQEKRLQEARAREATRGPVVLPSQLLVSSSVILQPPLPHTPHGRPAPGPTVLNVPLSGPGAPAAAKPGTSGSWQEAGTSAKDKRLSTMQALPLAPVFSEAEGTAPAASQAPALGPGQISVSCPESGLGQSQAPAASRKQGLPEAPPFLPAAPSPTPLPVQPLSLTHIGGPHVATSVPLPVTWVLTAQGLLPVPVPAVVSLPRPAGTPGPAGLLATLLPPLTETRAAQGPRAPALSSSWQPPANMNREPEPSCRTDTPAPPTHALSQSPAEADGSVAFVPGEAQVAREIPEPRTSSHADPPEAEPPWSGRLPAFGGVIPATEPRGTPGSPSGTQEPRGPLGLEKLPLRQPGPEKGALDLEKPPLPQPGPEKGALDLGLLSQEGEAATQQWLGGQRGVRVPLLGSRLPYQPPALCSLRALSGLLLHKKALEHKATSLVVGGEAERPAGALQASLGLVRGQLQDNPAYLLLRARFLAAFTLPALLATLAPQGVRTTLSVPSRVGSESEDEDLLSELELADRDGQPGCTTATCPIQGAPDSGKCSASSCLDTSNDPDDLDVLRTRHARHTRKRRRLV
UniProt O15370: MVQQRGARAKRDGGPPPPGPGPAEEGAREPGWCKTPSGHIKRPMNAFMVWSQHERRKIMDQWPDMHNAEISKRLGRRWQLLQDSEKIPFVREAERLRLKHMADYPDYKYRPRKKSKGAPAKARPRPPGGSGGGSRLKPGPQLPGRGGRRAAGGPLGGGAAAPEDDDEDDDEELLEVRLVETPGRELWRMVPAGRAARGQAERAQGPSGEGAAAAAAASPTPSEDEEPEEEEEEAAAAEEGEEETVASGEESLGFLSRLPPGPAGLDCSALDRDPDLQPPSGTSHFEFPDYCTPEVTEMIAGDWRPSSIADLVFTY
UniProt Q9Y343: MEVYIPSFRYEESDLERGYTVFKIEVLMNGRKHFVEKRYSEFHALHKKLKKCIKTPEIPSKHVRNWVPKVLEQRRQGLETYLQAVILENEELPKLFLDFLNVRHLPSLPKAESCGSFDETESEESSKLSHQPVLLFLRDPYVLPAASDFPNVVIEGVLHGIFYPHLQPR
UniProt Q9NX45: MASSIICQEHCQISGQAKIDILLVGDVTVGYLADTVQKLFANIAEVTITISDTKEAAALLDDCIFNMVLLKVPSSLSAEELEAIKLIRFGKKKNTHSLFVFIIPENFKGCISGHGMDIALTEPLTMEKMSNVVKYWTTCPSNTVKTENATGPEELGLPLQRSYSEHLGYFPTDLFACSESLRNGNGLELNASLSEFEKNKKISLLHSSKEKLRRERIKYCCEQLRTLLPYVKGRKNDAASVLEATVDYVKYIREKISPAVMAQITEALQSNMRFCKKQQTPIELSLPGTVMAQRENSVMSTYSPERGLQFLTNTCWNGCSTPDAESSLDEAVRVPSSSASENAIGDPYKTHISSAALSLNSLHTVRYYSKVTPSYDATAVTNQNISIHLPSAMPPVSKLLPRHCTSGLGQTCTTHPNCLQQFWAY

Assays:
Test in all cases: log2 fold change, soluble protein after heating vs DMSO (PISA); higher = thermal stabilisation; K562 lysate, 10 uM; active = over 0.2 and 3.5 SD of the protein, either way, in both replicates (recomputed)
[1] = compound: NCC(=O)Nc1ccc(-n2nc(C(F)(F)F)cc2-c2ccc3c(ccc4ccccc43)c2)cc1
Summary of the method: (§1)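 K562 pellets were dounce-homogenised in PBS pH 7.4 with 1 mM MgCl2, and the crude extract at 1 mg/mL protein was treated with 10 μM compound for 30 min. Aliquots were heated for 3 min across 48°C-58°C, pooled, and brought to 0.5% NP-40 at 4°C; soluble protein was the supernatant after 21,000xg for 90 min. Soluble protein was quantified by TMTpro 16plex LC-MS/MS with channel sums equalised, and reported as log2 fold change in thermal stability against DMSO controls, with values from duplicates.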

[2] = compound: O=C(CCCCCCC(=O)Nc1ccccc1)NO [vorinostat]
Summary of the method: as §1

[3] = compound: O=C(O)c1ccc2c(c1)nc(Nc1cccc(Cl)c1)c1ccncc12 [silmitasertib]
Summary of the method: as §1

[4] = compound: O=C1NC(=O)C(c2cnc3ccccn23)=C1c1cn2c3c(cc(F)cc13)CN(C(=O)N1CCCCC1)CC2
Summary of the method: as §1

[5] = compound: c1cn2cc(-c3ccc4cn[nH]c4c3)nc(Nc3ccc(N4CCOCC4)cc3)c2n1 [entospletinib]
Summary of the method: as §1

Row | Target | log2 fold change [1] | log2 fold change [2] | log2 fold change [3] | log2 fold change [4] | log2 fold change [5]
1 | SNX14 (UniProt Q9Y5W7) | inactive: -0.009 | inactive: 0.281 | inactive: -0.185 | inactive: 0.372 | inactive: -0.001
2 | SNRPC (UniProt P09234) | inactive: -0.007 | inactive: 0.085 | inactive: -0.046 | inactive: 0.013 | inactive: -0.072
3 | SOCS2 (UniProt O14508) | inactive: 0.046 | inactive: -0.027 | inactive: 0.041 | inactive: -0.006 | inactive: 0.008
4 | SNX18 isoform 2 (UniProt Q96RF0) | inactive: -0.071 | inactive: -0.182 | inactive: -0.033 | inactive: 0.051 | inactive: -0.065
5 | SNAP23 isoform 2 (UniProt O00161) | inactive: 0.146 | active: -0.85 | inactive: -0.028 |  | inactive: -0.329
6 | SMIM4 (UniProt Q8WVI0) |  |  |  | inactive: -0.091 | 
7 | SNAPC1 (UniProt Q16533) |  |  |  | inactive: 0.083 | 
8 | SMARCC2 isoform 3 (UniProt Q8TAQ2) |  |  |  | inactive: -0.054 | 
9 | SNAPC4 (UniProt Q5SXM2) | inactive: 0.13 |  |  |  | inactive: -0.066
10 | SOX12 (UniProt O15370) | inactive: -0.023 |  |  | inactive: 0.004 | 
11 | SNX24 (UniProt Q9Y343) |  | inactive: 0.059 | inactive: 0.019 | inactive: -0.083 | inactive: -0.006
12 | SOHLH2 isoform 3 (UniProt Q9NX45) |  | inactive: 0.041 | inactive: -0.122 | inactive: -0.103 | inactive: -0.016

Part of the list above, tab-delimited.
Row	Target	log2 fold change [1]	log2 fold change [2]	log2 fold change [3]	log2 fold change [4]	log2 fold change [5]
4	SNX18 isoform 2 (UniProt Q96RF0)	inactive: -0.071	inactive: -0.182	inactive: -0.033	inactive: 0.051	inactive: -0.065
8	SMARCC2 isoform 3 (UniProt Q8TAQ2)				inactive: -0.054	
9	SNAPC4 (UniProt Q5SXM2)	inactive: 0.13				inactive: -0.066
